Patent publication US20240409624A1
These are yes or no findings as the source states them, for the method shown. Some results given as binding are weak or reduced against the parent protein; the word gives no strength. Tags and fused reporters may be left off the sequences shown.

By UniProt entry, the sequences of proteins in these tests, tags left out. Where a name states a change or a piece, a line headed by the entry shows the natural chain unless it says otherwise. Chains listed by the source or under a name are the forms on record and can include a tag or linker.
1N4 R tau (P10636, form named): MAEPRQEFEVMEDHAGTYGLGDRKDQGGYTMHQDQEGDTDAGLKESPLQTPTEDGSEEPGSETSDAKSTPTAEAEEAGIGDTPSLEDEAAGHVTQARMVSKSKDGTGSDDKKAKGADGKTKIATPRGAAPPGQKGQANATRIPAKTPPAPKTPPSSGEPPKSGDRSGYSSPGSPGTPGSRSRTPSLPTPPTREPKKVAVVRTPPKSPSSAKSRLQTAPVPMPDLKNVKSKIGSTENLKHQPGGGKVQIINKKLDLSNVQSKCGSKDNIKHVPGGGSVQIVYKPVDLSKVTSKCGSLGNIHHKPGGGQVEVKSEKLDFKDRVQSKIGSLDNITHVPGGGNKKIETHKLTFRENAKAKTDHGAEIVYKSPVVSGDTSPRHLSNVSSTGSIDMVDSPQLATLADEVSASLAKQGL

Tests used:
2N4 R tau (human) [1] = biological target: 2N4 R tau (human) (UniProt P10636); experiment: Western blot of 2N3R, 2N4R and mock lysates probed with VR7082 scFv-Ms-Fc
1N4 R tau (human) [2] = biological target: 1N4 R tau (human) (UniProt P10636); experiment: ELISA, scFv-Ms-Fc titrated about 3 to 10000 ng/ml on coated tau isoform, OD 630 nm
2N4 R tau (human) [3] = biological target: 2N4 R tau (human) (UniProt P10636); experiment: as above
1N4 R tau (human) [4] = biological target: 1N4 R tau (human) (UniProt P10636); experiment: flow cytometry, scFv-Ms-Fc titrated about 3 to 10000 ng/ml on cells transfected with the tau isoform, mean fluorescence of transfected cells
2N4 R tau (human) [5] = biological target: 2N4 R tau (human) (UniProt P10636); experiment: as above

Measured: binding

B1: VR7082 scFv-Ms-Fc (Fc fusion, not shown: a dimerising Fc or GST)
scFv: MAQSVEESGGRLVTPGTPLTLTCTVSGIDLSNYAMIWVRQAPGEGLEYIGIISSTGNTFYATWAKGRFTISKTSTTVDLKITSPTAEDTATYFCARDTNSDSHYGWEAFNIWGPGTLVTVSSGGGGSGGGGSGGGGSGGGGSAVVLTQTPASVEAAVGGTVSINCQASEDIESYLAWYQQKPGQRPKLLIYRASTLASGVSSRFKGSGSGTEYTLTISGVECADAATYYCQEGYSIHVDNVFGGGTEVVVK
binds: all assays above
